Data: paper PMC12092681

Sequences of proteins named here, by UniProt entry; tags and fusion partners are left off. Residues count along the entry.
UniProt P06733: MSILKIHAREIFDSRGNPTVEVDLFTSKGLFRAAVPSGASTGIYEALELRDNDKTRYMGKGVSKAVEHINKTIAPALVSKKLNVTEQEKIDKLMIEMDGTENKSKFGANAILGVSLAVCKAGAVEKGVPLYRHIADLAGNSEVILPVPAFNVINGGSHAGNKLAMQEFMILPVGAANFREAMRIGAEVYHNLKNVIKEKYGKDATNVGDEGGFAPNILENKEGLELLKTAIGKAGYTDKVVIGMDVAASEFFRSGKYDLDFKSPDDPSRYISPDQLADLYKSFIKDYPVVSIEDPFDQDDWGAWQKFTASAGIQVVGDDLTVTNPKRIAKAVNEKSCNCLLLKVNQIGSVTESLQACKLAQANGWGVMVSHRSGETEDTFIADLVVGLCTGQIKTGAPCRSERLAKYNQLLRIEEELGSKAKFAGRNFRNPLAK
UniProt Q99873: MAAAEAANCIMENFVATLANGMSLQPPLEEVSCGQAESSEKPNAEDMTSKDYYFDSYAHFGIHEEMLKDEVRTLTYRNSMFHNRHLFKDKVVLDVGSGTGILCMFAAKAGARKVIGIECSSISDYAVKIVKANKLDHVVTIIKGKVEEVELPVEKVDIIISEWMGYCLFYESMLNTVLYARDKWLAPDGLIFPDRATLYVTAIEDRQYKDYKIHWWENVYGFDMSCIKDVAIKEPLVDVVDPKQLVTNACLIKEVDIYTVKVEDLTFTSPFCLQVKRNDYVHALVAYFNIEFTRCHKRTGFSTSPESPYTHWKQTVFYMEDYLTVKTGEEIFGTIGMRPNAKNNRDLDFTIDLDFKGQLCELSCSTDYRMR
UniProt P14618: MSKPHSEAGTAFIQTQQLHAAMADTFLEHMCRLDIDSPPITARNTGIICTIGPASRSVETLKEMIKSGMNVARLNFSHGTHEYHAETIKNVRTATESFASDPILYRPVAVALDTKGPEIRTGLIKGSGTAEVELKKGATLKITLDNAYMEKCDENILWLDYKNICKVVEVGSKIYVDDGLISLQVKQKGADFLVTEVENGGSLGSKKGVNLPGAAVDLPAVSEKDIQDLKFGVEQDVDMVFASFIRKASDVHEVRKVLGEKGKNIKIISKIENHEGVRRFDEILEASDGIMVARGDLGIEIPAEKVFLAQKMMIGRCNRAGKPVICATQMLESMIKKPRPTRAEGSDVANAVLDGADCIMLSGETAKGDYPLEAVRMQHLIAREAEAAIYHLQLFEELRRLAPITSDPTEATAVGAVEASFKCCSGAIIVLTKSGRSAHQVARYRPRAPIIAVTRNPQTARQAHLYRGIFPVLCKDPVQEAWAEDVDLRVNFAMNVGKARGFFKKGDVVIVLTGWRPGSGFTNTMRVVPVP
UniProt Q04721, residues 26-2471: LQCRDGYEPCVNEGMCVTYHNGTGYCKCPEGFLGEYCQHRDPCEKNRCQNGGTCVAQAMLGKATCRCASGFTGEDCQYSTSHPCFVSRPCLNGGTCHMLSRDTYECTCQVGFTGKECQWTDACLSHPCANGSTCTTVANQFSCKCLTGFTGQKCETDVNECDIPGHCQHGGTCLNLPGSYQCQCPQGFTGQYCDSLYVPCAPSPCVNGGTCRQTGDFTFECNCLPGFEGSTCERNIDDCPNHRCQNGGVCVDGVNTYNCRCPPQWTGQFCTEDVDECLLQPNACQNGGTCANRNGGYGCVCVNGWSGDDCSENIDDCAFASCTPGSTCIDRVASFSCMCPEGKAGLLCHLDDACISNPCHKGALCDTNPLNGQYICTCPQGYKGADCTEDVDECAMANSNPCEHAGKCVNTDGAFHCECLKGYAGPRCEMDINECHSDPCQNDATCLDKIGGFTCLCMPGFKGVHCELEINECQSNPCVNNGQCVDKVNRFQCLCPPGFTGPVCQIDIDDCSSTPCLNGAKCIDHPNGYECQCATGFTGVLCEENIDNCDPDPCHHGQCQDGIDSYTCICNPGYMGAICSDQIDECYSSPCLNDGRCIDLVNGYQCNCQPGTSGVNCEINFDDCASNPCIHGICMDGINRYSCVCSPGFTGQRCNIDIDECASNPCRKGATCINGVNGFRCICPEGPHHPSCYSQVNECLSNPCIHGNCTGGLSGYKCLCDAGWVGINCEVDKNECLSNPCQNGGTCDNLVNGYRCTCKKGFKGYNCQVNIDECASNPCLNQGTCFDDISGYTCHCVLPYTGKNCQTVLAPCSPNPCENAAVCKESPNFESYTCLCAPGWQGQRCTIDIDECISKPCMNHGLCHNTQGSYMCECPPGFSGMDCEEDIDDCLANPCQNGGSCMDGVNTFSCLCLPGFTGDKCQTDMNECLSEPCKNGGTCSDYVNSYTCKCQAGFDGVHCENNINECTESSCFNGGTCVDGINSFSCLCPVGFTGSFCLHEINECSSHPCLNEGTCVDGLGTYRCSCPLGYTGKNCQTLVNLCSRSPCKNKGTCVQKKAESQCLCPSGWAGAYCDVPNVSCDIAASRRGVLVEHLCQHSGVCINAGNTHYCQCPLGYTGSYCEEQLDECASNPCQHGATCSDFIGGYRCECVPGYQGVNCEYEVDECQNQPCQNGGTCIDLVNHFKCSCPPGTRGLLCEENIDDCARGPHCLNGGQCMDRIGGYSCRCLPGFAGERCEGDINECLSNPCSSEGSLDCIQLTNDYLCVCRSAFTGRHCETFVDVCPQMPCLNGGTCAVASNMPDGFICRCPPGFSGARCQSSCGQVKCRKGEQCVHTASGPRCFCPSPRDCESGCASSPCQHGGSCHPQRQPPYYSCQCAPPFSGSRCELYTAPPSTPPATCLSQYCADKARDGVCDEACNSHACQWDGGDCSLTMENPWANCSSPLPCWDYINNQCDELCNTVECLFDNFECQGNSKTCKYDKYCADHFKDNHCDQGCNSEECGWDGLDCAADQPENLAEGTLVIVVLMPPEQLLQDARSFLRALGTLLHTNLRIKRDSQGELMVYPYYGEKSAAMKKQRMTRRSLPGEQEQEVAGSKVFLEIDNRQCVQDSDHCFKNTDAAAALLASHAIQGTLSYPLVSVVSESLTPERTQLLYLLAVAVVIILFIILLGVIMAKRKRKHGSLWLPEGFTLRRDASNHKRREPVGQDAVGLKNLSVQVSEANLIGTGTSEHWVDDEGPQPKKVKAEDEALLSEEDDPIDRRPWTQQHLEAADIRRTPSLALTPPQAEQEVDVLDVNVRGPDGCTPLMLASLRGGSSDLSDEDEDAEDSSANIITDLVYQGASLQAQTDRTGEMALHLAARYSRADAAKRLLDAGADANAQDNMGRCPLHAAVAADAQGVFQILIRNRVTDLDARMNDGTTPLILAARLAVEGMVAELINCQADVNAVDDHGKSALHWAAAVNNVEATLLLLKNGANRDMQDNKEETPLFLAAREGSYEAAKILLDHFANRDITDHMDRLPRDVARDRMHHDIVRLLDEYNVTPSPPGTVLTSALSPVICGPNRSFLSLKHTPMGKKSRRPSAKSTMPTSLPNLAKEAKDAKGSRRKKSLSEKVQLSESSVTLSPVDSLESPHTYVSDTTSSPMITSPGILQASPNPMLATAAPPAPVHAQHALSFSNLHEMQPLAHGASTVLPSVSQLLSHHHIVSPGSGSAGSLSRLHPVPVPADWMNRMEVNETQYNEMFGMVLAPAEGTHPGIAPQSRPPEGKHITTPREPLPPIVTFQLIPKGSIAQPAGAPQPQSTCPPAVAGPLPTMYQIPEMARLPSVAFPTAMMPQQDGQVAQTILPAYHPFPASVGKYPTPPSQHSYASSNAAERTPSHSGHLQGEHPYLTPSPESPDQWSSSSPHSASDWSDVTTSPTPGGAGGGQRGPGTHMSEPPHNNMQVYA

Molecular target: T1, MYC-tagged NUSAP1 (nucleolar and spindle-associated protein 1), wild type, in HEK293FT cells (human) (UniProt Q9BXS6)
T1 sequence: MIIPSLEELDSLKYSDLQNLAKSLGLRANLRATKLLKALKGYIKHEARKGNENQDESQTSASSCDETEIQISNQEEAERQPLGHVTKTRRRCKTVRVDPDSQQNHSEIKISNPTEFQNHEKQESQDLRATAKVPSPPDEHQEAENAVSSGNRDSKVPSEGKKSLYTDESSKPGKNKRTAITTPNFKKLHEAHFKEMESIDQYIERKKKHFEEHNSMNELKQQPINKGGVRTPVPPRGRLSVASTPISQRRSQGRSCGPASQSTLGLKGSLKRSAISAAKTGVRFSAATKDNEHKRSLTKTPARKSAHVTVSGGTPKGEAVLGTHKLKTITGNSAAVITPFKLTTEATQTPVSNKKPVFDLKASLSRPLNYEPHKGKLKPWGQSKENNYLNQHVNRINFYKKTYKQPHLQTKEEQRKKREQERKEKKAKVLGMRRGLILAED
Test: affinity purification with mass spectrometry; MYC-NUSAP1 expressed in HEK293FT cells, precipitated with anti MYC Nanobody Magarose Beads at 4 °C overnight, bound proteins identified by LC-MS/MS

binding | Substance
binds | ENO1, endogenous in HEK293FT cells (from UniProt P06733 1-434) (enzyme)
binds | PRMT1, endogenous in HEK293FT cells (from UniProt Q99873 1-371) (enzyme)
binds | PKM2, endogenous in HEK293FT cells (from UniProt P14618 1-531) (enzyme)
binds | Notch2, endogenous in HEK293FT cells (from UniProt Q04721 26-2471) (receptor)

These are yes or no findings as the source states them, for the method shown. Binding seen in cells or lysates may run through a third protein. Here binding means that the protein was enriched with, or labelled near, the bait; the list need not be complete. Tags and fused reporters may be left off the sequences shown.
